According to the supplement of paper PMC4604168 (melanoma cell lines):
The list shows a part of the results. Repeats are few or missing, and single values can be far off.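 Imaging used 1,536-well plates; nuclei positive for cleaved PARP by antibody were divided by total DNA-stained nuclei to yield the apoptosis fraction. Doses for screening kept most cells viable, and cell lines differ markedly in resting and induced cleaved-PARP levels.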

Columns and labels:
Experiment in all cases: cleaved PARP positive nuclei fraction relative to DMSO control; melanoma cells; higher = more apoptosis
Details in all cases: library dose: low library concentration; 72 h
[1] = test system: MZ2-MEL
[2] = test system: MeWo
[3] = test system: RPMI7951
[4] = test system: RVH-421
[5] = test system: SkMel28
[6] = test system: SkMel30
[7] = test system: UACC62
[8] = test system: WM115
[9] = test system: WM1716
[10] = test system: WM1745
[11] = test system: WM3526
[12] = test system: WM3619
[13] = test system: WM451Lu
[14] = test system: SkMel2
[15] = test system: SkMel5
[16] = test system: UACC257

| Structure (SMILES) | cleaved PARP positive nuclei fraction [1] | cleaved PARP positive nuclei fraction [2] | cleaved PARP positive nuclei fraction [3] | cleaved PARP positive nuclei fraction [4] | cleaved PARP positive nuclei fraction [5] | cleaved PARP positive nuclei fraction [6] | cleaved PARP positive nuclei fraction [7] | cleaved PARP positive nuclei fraction [8] | cleaved PARP positive nuclei fraction [9] | cleaved PARP positive nuclei fraction [10] | cleaved PARP positive nuclei fraction [11] | cleaved PARP positive nuclei fraction [12] | cleaved PARP positive nuclei fraction [13] | cleaved PARP positive nuclei fraction [14] | cleaved PARP positive nuclei fraction [15] | cleaved PARP positive nuclei fraction [16] |
| --- | --- | --- | --- | --- | --- | --- | --- | --- | --- | --- | --- | --- | --- | --- | --- | --- |
| Cc1cn(-c2cc(NC(=O)c3ccc(C)c(Nc4nccc(-c5cccnc5)n4)c3)cc(C(F)(F)F)c2)cn1 [nilotinib] + CO[C@H]1C[C@@H]2CC[C@@H](C)[C@@](O)(O2)C(=O)C(=O)N2CCCC[C@H]2C(=O)O[C@H]([C@H](C)C[C@@H]2CC[C@@H](OCCO)[C@H](OC)C2)CC(=O)[C@H](C)/C=C(\C)[C@@H](O)[C@@H](OC)C(=O)[C@H](C)C[C@H](C)/C=C/C=C/C=C/1C [everolimus] (first compound 0.2 µM, partner dose 0.02 µM) | 90.3% | 72.4% | 86.6% | 545% | 368% | 70% | 343% | 113% | 26.1% | 125% | 216% | 100% | 46.5% | – | – | – |
| Cc1ccc(Nc2nccc(N(C)c3ccc4c(C)n(C)nc4c3)n2)cc1S(N)(=O)=O [Pazopanib] + C=CCn1c(=O)c2cnc(Nc3ccc(N4CCN(C)CC4)cc3)nc2n1-c1cccc(C(C)(C)O)n1 [MK1775] (first compound 0.4 µM, partner dose 0.02 µM) | – | 98.7% | 106% | 42.5% | 213% | 92.6% | 182% | 253% | 61.3% | 101% | 72.3% | 115% | 262% | 59% | 128% | 66.1% |
| CC[C@]1(O)C[C@H]2CN(CCc3c([nH]c4ccccc34)[C@@](C(=O)OC)(c3cc4c(cc3OC)N(C=O)[C@H]3[C@@](O)(C(=O)OC)[C@H](OC(C)=O)[C@]5(CC)C=CCN6CC[C@]43[C@@H]65)C2)C1 [vincristine] + COC(=O)c1sccc1S(=O)(=O)Nc1ccc(Nc2ccccc2)cc1OC [GSK0660] (first compound 0.0001 µM, partner dose 1 µM) | – | 230% | 97.4% | 137% | 242% | 23% | 344% | 1430% | 194% | 106% | 62% | 159% | 473% | 164% | 97.6% | 591% |
| CC[C@]1(O)C[C@H]2CN(CCc3c([nH]c4ccccc34)[C@@](C(=O)OC)(c3cc4c(cc3OC)N(C=O)[C@H]3[C@@](O)(C(=O)OC)[C@H](OC(C)=O)[C@]5(CC)C=CCN6CC[C@]43[C@@H]65)C2)C1 [vincristine] + Cn1cnc2c(F)c(Nc3ccc(Br)cc3Cl)c(C(=O)NOCCO)cc21 [selumetinib] (first compound 0.0001 µM, partner dose 0.015 µM) | 125% | 217% | 276% | 101% | 52.6% | 107% | 392% | 1340% | 127% | 108% | 109% | 188% | 404% | – | – | – |
| N#CC[C@H](C1CCCC1)n1cc(-c2ncnc3[nH]ccc23)cn1 [ruxolitinib] + CCN(CC)CCCCNc1ncc2cc(-c3cc(OC)cc(OC)c3)c(NC(=O)NC(C)(C)C)nc2n1 [PD173074] (first compound 1 µM, partner dose 0.1 µM) | – | 57.8% | 58.2% | 115% | 88.7% | 53.4% | 85.7% | 63.2% | 21.2% | 83.9% | 45.1% | 84.4% | 57.5% | 47.7% | 320% | 93.3% |
| Cc1cc(Nc2cc(N3CCN(C)CC3)nc(Sc3ccc(NC(=O)C4CC4)cc3)n2)n[nH]1 [Tozasertib] + Cc1cc([N+](=O)[O-])ccc1NS(=O)(=O)c1cc(Cl)ccc1Cl [FH535] (first compound 0.006 µM, partner dose 1 µM) | – | 115% | 79.2% | 112% | 64.2% | 46.5% | 87.5% | 85.4% | 132% | 108% | 90.1% | 81.3% | 45.5% | 132% | 164% | 38% |
| O=c1[nH]nc(Sc2ncc([N+](=O)[O-])s2)n1-c1ccc2c(c1)OCCO2 + CN(c1ncccc1CNc1nc(Nc2ccc3c(c2)CC(=O)N3)ncc1C(F)(F)F)S(C)(=O)=O [PF562271] (first compound 0.2 µM, partner dose 0.08 µM) | 177% | 120% | 54.3% | 89.5% | 109% | 37% | 119% | 121% | 149% | 107% | 78.6% | 102% | 102% | – | – | – |
| N#CC[C@H](C1CCCC1)n1cc(-c2ncnc3[nH]ccc23)cn1 [ruxolitinib] + CO[C@H]1C[C@@H]2CC[C@@H](C)[C@@](O)(O2)C(=O)C(=O)N2CCCC[C@H]2C(=O)O[C@H]([C@H](C)C[C@@H]2CC[C@@H](OCCO)[C@H](OC)C2)CC(=O)[C@H](C)/C=C(\C)[C@@H](O)[C@@H](OC)C(=O)[C@H](C)C[C@H](C)/C=C/C=C/C=C/1C [everolimus] (first compound 1 µM, partner dose 0.02 µM) | 48.3% | 159% | 82.8% | 71.4% | 55.7% | 54.9% | 183% | 126% | 74.7% | 115% | 49% | 121% | 31.2% | – | – | – |
| O=C(Nc1cc(C(F)(F)F)cc(C(F)(F)F)c1)c1cc(Cl)ccc1O + Cn1cc(/C=C2\C(=O)Nc3cccnc32)c2ccccc21 [GW441756] (first compound 0.016 µM, partner dose 0.4 µM) | – | 197% | 69.6% | 101% | 73.8% | 22.6% | 76% | 127% | 87.2% | 97.7% | 73.2% | 96.9% | 36.5% | 39.7% | 292% | 40.5% |
| N#CC[C@H](C1CCCC1)n1cc(-c2ncnc3[nH]ccc23)cn1 [ruxolitinib] + OCCn1cc(-c2cnc3nnn(Cc4ccc5ncccc5c4)c3n2)cn1 [PF04217903] (first compound 1 µM, partner dose 1 µM) | – | 77.4% | 99.7% | 33.1% | 74.3% | 68.1% | 185% | 131% | 66.9% | 103% | 64.4% | 86.8% | 106% | 128% | 129% | 82.7% |
| COc1cc([C@@H]2c3cc4c(cc3[C@@H](O[C@@H]3O[C@@H]5CO[C@@H](C)O[C@H]5[C@H](O)[C@H]3O)[C@H]3COC(=O)[C@H]23)OCO4)cc(OC)c1O [etoposide] + C=CCn1c(=O)c2cnc(Nc3ccc(N4CCN(C)CC4)cc3)nc2n1-c1cccc(C(C)(C)O)n1 [MK1775] (first compound 0.02 µM, partner dose 0.02 µM) | 89.8% | 181% | 51.1% | – | 92.6% | 91.4% | 93.5% | 110% | 196% | 108% | 66.7% | 133% | 261% | 78.4% | 105% | 87.4% |
| O=c1[nH]nc(Sc2ncc([N+](=O)[O-])s2)n1-c1ccc2c(c1)OCCO2 + CC(=O)O[C@@]12CO[C@@H]1C[C@H](O)[C@@]1(C)C(=O)[C@H](O)C3=C(C)[C@@H](OC(=O)[C@H](O)[C@@H](NC(=O)OC(C)(C)C)c4ccccc4)C[C@@](O)([C@@H](OC(=O)c4ccccc4)[C@H]21)C3(C)C [Docetaxel] (first compound 0.2 µM, partner dose 0.0001 µM) | 427% | 612% | 176% | 139% | 112% | 949% | 528% | 282% | 127% | 159% | 187% | 121% | 88.1% | – | – | – |
| CC[C@]1(O)C[C@H]2CN(CCc3c([nH]c4ccccc34)[C@@](C(=O)OC)(c3cc4c(cc3OC)N(C=O)[C@H]3[C@@](O)(C(=O)OC)[C@H](OC(C)=O)[C@]5(CC)C=CCN6CC[C@]43[C@@H]65)C2)C1 [vincristine] + Cn1c(Nc2ccc(C(F)(F)F)cc2)nc2cc(Oc3ccnc(-c4ncc(C(F)(F)F)[nH]4)c3)ccc21 [CHIR265] (first compound 0.0001 µM, partner dose 0.08 µM) | 243% | 1630% | 425% | 138% | 84.5% | 221% | 690% | 1200% | 563% | 157% | 209% | 143% | 130% | – | – | – |
| CCCCCCCCCCCCCCCCCCOP(=O)([O-])OC1CC[N+](C)(C)CC1 [Perifosine] + Cn1cncc1[C@@](N)(c1ccc(Cl)cc1)c1ccc2c(c1)c(-c1cccc(Cl)c1)cc(=O)n2C [tipifarnib] (first compound 0.4 µM, partner dose 0.01 µM) | – | 57.8% | 134% | 112% | 38.5% | 73.3% | 87.5% | 266% | 249% | 2040% | 78.4% | 241% | 156% | 264% | 120% | 136% |
| CC[C@]1(O)C[C@H]2CN(CCc3c([nH]c4ccccc34)[C@@](C(=O)OC)(c3cc4c(cc3OC)N(C=O)[C@H]3[C@@](O)(C(=O)OC)[C@H](OC(C)=O)[C@]5(CC)C=CCN6CC[C@]43[C@@H]65)C2)C1 [vincristine] + NC(=O)c1ccc(N(C(N)=O)c2c(F)cccc2F)nc1-c1ccc(F)cc1F [VX702] (first compound 0.0001 µM, partner dose 0.4 µM) | 83.6% | 129% | 363% | 146% | 69.8% | 398% | 101% | 587% | 56.8% | 892% | 38% | 382% | 60% | – | – | – |
| O=C(/C=C/c1cccnc1)NCCCCC1CCN(C(=O)c2ccccc2)CC1 + CO[C@H]1C[C@@H]2CC[C@@H](C)[C@@](O)(O2)C(=O)C(=O)N2CCCC[C@H]2C(=O)O[C@H]([C@H](C)C[C@@H]2CC[C@@H](OCCO)[C@H](OC)C2)CC(=O)[C@H](C)/C=C(\C)[C@@H](O)[C@@H](OC)C(=O)[C@H](C)C[C@H](C)/C=C/C=C/C=C/1C [everolimus] (first compound 0.01 µM, partner dose 0.02 µM) | 355% | 78.6% | 40% | 109% | 122% | 31.7% | 252% | 113% | 52.4% | 21% | 53.4% | 116% | 156% | – | – | – |
